In article PMC12669767:

Experiments:
Assay in all cases: affinity purification with mass spectrometry; label-free interactome: ALFA-TXNIP or its PPxY mutants precipitated from transfected HEK293T lysate on ALFA Selector ST magnetic beads, 3 h at 4 °C; 30 mM Tris pH 7.5, 150 mM NaCl, 0.5% octyl-glucopyranoside; abundances normalised to empty beads; n = 3
[1] = molecular target: T1, ALFA-tagged TXNIP (thioredoxin interacting protein), expressed in HEK293T (human), Q9H3M7; conditions: remark: other sources report otherwise
T1 chain: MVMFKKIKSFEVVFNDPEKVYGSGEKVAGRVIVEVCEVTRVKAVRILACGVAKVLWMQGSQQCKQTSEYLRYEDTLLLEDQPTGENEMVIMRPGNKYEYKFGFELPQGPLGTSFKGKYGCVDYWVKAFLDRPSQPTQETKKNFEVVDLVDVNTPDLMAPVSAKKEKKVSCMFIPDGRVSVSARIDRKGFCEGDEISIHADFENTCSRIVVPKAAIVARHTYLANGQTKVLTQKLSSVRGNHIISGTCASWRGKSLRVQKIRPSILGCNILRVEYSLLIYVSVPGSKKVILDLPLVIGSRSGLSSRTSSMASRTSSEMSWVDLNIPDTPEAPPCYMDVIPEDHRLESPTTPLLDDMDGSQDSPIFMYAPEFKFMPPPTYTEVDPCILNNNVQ

[2] = molecular target: T2, ALFA-TXNIP^PPCY331AACA (first PPxY motif mutated) (human) (UniProt Q9H3M7)
T2 sequence: T1 chain with P331A, P332A, Y334A

[3] = molecular target: T3, ALFA-TXNIP^(PPCY331AACA, PPTY375AATA) (both PPxY motifs mutated) (human) (UniProt Q9H3M7)
T3 sequence: T1 chain with P331A, P332A, Y334A, P375A, P376A, Y378A

B1: NEDD4L, endogenous in HEK293T, Q96PU5 1-975 (enzyme)
chain: MATGLGEPVYGLSEDEGESRILRVKVVSGIDLAKKDIFGASDPYVKLSLYVADENRELALVQTKTIKKTLNPKWNEEFYFRVNPSNHRLLFEVFDENRLTRDDFLGQVDVPLSHLPTEDPTMERPYTFKDFLLRPRSHKSRVKGFLRLKMAYMPKNGGQDEENSDQRDDMEHGWEVVDSNDSASQHQEELPPPPLPPGWEEKVDNLGRTYYVNHNNRTTQWHRPSLMDVSSESDNNIRQINQEAAHRRFRSRRHISEDLEPEPSEGGDVPEPWETISEEVNIAGDSLGLALPPPPASPGSRTSPQELSEELSRRLQITPDSNGEQFSSLIQREPSSRLRSCSVTDAVAEQGHLPPPSAPAGRARSSTVTGGEEPTPSVAYVHTTPGLPSGWEERKDAKGRTYYVNHNNRTTTWTRPIMQLAEDGASGSATNSNNHLIEPQIRRPRSLSSPTVTLSAPLEGAKDSPVRRAVKDTLSNPQSPQPSPYNSPKPQHKVTQSFLPPGWEMRIAPNGRPFFIDHNTKTTTWEDPRLKFPVHMRSKTSLNPNDLGPLPPGWEERIHLDGRTFYIDHNSKITQWEDPRLQNPAITGPAVPYSREFKQKYDYFRKKLKKPADIPNRFEMKLHRNNIFEESYRRIMSVKRPDVLKARLWIEFESEKGLDYGGVAREWFFLLSKEMFNPYYGLFEYSATDNYTLQINPNSGLCNEDHLSYFTFIGRVAGLAVFHGKLLDGFFIRPFYKMMLGKQITLNDMESVDSEYYNSLKWILENDPTELDLMFCIDEENFGQTYQVDLKPNGSEIMVTNENKREYIDLVIQWRFVNRVQKQMNAFLEGFTELLPIDLIKIFDENELELLMCGLGDVDVNDWRQHSIYKNGYCPNHPVIQWFWKAVLLMDAEKRIRLLQFVTGTSRVPMNGFAELYGSNGPQLFTIEQWGSPEKLPRAHTCFNRLDLPPYETFEDLREKLLMAVENAQGFEGVD
For B1, the binding [1] was “binds”.

B2: TXN (Thioredoxin), endogenous in HEK293T, P10599 1-105 (protein)
chain: MVKQIESKTAFQEALDAAGDKLVVVDFSATWCGPCKMIKPFFHSLSEKYSNVIFLEVDVDDCQDVASECEVKCMPTFQFFKKGQKVGEFSGANKEKLEATINELV
In the case of B2, the binding [1] is reported as “binds”.

B3: TXN (Thioredoxin), endogenous in HEK293T (protein, UniProt P10599 1-105)
chain: B2 chain
In the case of B3, the binding [2] is reported as “binds” and the binding [3] is reported as “binds”.

Changes are numbered by the printed parent chain. These are yes or no findings as the source states them, for the method shown. Binding seen in cells or lysates may run through a third protein. These calls come from enrichment with a bait or labelling near it, and not all partners need be listed. For some of these results: Tags and fused reporters may be left off the sequences shown.
